Here are results for 20 compounds from PubChem BioAssay AID248 (DTP/NCI, 2004).

The list does not hold the whole screen: it is rich in T/C values a quarter to a half above the control, in often repeated tests (any T/C) and in doses without a T/C. Further doses and runs are listed elsewhere. T/C is the treated group as % of the vehicle group. Some doses have a count of surviving animals in place of a T/C: the source files T/C as zero there, which appears to mark a toxic dose or a test without result, not a measured value. Some doses without a T/C left all or most animals alive at the check, yet need not have been tolerated: the source hardly ever lists a survival T/C far under the control, and the zero likely stands for such cases as well. Counts of survivors are from the toxicity check (mostly the fifth day) where no day follows; animals may have died later. Schedule codes are those of the source, read here as Q, the interval in days (D) or hours (H), X, the number of doses. Some entries hold several experiments; the results are listed from low to high. Where survival is the endpoint, the PubChem record calls one and a half times the control and up active, and a quarter to a half above the control has no call in these data; cut-offs in other NCI protocols can differ.

This assay concerns L1210 leukemia ip in BDF1 mice, survival T/C. Kind of assay: NCI In Vivo Anticancer Drug Screen. Data for tumor model L1210 Leukemia (intraperitoneal) in B6D2F1 (BDF1) mice. Conditions: T/C endpoint: mean survival time, higher T/C = longer survival.
The mark [1] stands for this setting: dose: 400.0 mg/kg/injection, schedule: Q04DX003 (ip), vehicle: Klucel (hydroxypropylcellulose) (HPC).
Setting [2] is: dose: 300.0 mg/kg/injection, schedule: Q01DX001 (ip), vehicle: saline.
The mark [3] stands for this setting: dose: 200.0 mg/kg/injection, schedule: Q01DX009 (ip), vehicle: saline.
Setting [4] is: dose: 400.0 mg/kg/injection, schedule: Q01DX009 (ip), vehicle: saline.
[5] abbreviates: dose: 200.0 mg/kg/injection, schedule: Q01DX009 (ip), vehicle: Klucel (hydroxypropylcellulose) (HPC).
The mark [6] stands for this setting: dose: 100.0 mg/kg/injection, schedule: Q01DX009 (ip), vehicle: saline.
Setting [7] is: dose: 400.0 mg/kg/injection, schedule: Q01DX001 (ip), vehicle: saline.
Where [8] appears, read: dose: 200.0 mg/kg/injection, schedule: Q04DX002 (ip), vehicle: Klucel (hydroxypropylcellulose) (HPC).
The mark [9] stands for this setting: dose: 400.0 mg/kg/injection, schedule: Q04DX002 (ip), vehicle: Klucel (hydroxypropylcellulose) (HPC).

As to `O=[N+]([O-])c1c(Br)sc(Br)c1[N+](=O)[O-]`, the survivor count (dose: 20.0 mg/kg/injection, schedule: Q04DX003 (ip), vehicle: Klucel (hydroxypropylcellulose) (HPC)) is reported as 5 of 6; the survivor count (dose: 40.0 mg/kg/injection, schedule: Q04DX003 (ip), vehicle: Klucel (hydroxypropylcellulose) (HPC)) is 1 of 6; the survivor count (dose: 80.0 mg/kg/injection, schedule: Q04DX003 (ip), vehicle: Klucel (hydroxypropylcellulose) (HPC)) is recorded as 0 of 6; the survivor count (dose: 100.0 mg/kg/injection, schedule: Q04DX003 (ip), vehicle: Klucel (hydroxypropylcellulose) (HPC)) was 0 of 6; the survivor count (dose: 200.0 mg/kg/injection, schedule: Q04DX003 (ip), vehicle: Klucel (hydroxypropylcellulose) (HPC)) is on record as 0 of 6; the survivor count under setting [1] was 0 of 6.

For the compound `O=C1C=C(N2CCCC2)CCC1`, the survivor count under setting [2] is 0 of 6.

`CCC1OCC(C(Cl)CCl)O1` (centres undefined): the survivor count by setting is: (dose: 200.0 mg/kg/injection, schedule: Q01DX009 (ip), vehicle: saline sonified) 3 of 6; (dose: 400.0 mg/kg/injection, schedule: Q01DX009 (ip), vehicle: saline sonified) 0 of 6.

Turning to `O=C(O)C1(O)CCCCC1`, the survivor count by setting is: under setting [3], 2 of 3; under setting [4], 0 of 3; (dose: 400.0 mg/kg/injection, schedule: Q04DX002 (ip), vehicle: saline) 2 of 3.

For `Cc1ccc(N=Nc2sc(N)nc2C)c(C)c1`, the survivor count under setting [2] is given as 0 of 6.

In the case of `C[C@]12CC[C@H]3[C@@H](CC[C@@H]4C[C@@H](O)CC[C@@]43C=O)[C@]13O[C@@H]3CC2c1ccc(=O)oc1` (some centres undefined), the survivor count (dose: 2.0 mg/kg/injection, schedule: Q01DX009 (ip), vehicle: Klucel (hydroxypropylcellulose) (HPC)) is listed as 1 of 3.

For `CC1CN(Cc2cccc(C#N)c2)CC(C)N1` (centres undefined), the survivor count is 0 of 6 (dose: 200.0 mg/kg/injection, schedule: Q01DX009 (ip), vehicle: water) and 0 of 6 (dose: 400.0 mg/kg/injection, schedule: Q01DX009 (ip), vehicle: water).

As for `O=C(O)CN(Cc1ccccc1)Sc1ccccc1[N+](=O)[O-]`, the survivor count was 3 of 6 (dose: 200.0 mg/kg/injection, schedule: Q01DX009 (ip), vehicle: other); 0 of 6 (dose: 300.0 mg/kg/injection, schedule: Q01DX009 (ip), vehicle: other); 1 of 6 (dose: 400.0 mg/kg/injection, schedule: Q04DX003 (ip), vehicle: other).

As for `c1ccc(-c2nc3cnccc3o2)cc1`, the survivor count is reported as 1 of 6 (dose: 100.0 mg/kg/injection, schedule: Q01DX009 (ip), vehicle: Klucel (hydroxypropylcellulose) (HPC)); 0 of 6 under setting [5]; 0 of 6 (dose: 400.0 mg/kg/injection, schedule: Q01DX009 (ip), vehicle: Klucel (hydroxypropylcellulose) (HPC)).

In the case of `CN(C)CCN(Cc1ccc(Cl)cc1)c1ccccn1`, the survivor count was 0 of 3 (dose: 50.0 mg/kg/injection, schedule: Q01DX009 (ip), vehicle: saline); 0 of 3 under setting [6]; 0 of 3 under setting [3].

In the case of `COC1OC(COC(C)=O)C(OC(C)=O)C2C1N2C(N)=S` (centres undefined), the T/C (dose: 200.0 mg/kg/injection, schedule: Q04DX002 (ip), vehicle: saline) was 125 % of control.

As for `O=[N+]([O-])c1ccc(NCCNC(c2ccccc2)(c2ccccc2)c2ccccc2)c([N+](=O)[O-])c1`, under setting [7], the survivor count is given as 6 of 6.

For `CC(CN1c2ccccc2Sc2cccnc21)N(C)C` (centres undefined), the survivor count was 0 of 6 under setting [6]; 1 of 4 (dose: 100.0 mg/kg/injection, schedule: Q04DX003 (ip), vehicle: saline); 0 of 6 under setting [3]; 0 of 4 (dose: 200.0 mg/kg/injection, schedule: Q04DX003 (ip), vehicle: saline); 0 of 6 under setting [4]; 0 of 4 (dose: 400.0 mg/kg/injection, schedule: Q04DX003 (ip), vehicle: saline).

Consider `CN1CC(CO)=CC2c3cccc4[nH]cc(c34)CC21` (centres undefined), for which the survivor count is, setting by setting: (dose: 200.0 mg/kg/injection, schedule: Q01DX001 (ip), vehicle: saline) 1 of 4; under setting [7], 1 of 4.

As for `C[n+]1c(-c2ccc(Cl)cc2Cl)c2cc([N+](=O)[O-])ccc2c2ccccc21`, the survivor count reads like this: (dose: 50.0 mg/kg/injection, schedule: Q04DX003 (ip), vehicle: water) 3 of 6; (dose: 100.0 mg/kg/injection, schedule: Q01DX009 (ip), vehicle: water) 2 of 6; (dose: 200.0 mg/kg/injection, schedule: Q04DX003 (ip), vehicle: water) 0 of 6; (dose: 400.0 mg/kg/injection, schedule: Q04DX003 (ip), vehicle: water) 1 of 6.

Regarding `CCOC(=O)C[P+](c1ccc(C)cc1)(c1ccc(C)cc1)c1ccc(C)cc1`, the survivor count is, setting by setting: (dose: 30.0 mg/kg/injection, schedule: Q01DX001 (ip), vehicle: carboxymethylcellulose (CMC)) 5 of 6; (dose: 60.0 mg/kg/injection, schedule: Q01DX001 (ip), vehicle: carboxymethylcellulose (CMC)) 0 of 6.

For the compound `CC1(C)N=C(N)N=C(N)N1c1cccc(OCCOc2ccccc2[N+](=O)[O-])c1`, the survivor count is 3 of 6 and 2 of 3 (dose: 100.0 mg/kg/injection, schedule: Q04DX002 (ip), vehicle: Klucel (hydroxypropylcellulose) (HPC)); 0 of 3 and 0 of 6 under setting [8]; 0 of 3 and 0 of 6 under setting [9].

Regarding `CCn1c2ccccc2c2cc3c(cc21)C(C)=NCC3`, the survivor count is recorded as 1 of 3 under setting [8] and 0 of 3 under setting [9].

With `O=C(O)/C(=C\C#Cc1ccccc1)c1ccccc1`, the survivor count under setting [1] was 3 of 6.

For `O=C(Nc1ccc(C(=O)O)cc1)Nc1cccc(F)c1`, the survivor count under setting [5] is on record as 3 of 6 and the survivor count under setting [9] is given as 0 of 3.
